Measurements taken from article PMC12078694.
No constants are given. Whether binding was seen depends on the method and setting. Binding seen in cells or lysates may run through a third protein. Some entries that bind do so weakly or less than the wild type.

Protein sequences, listed by entry. Tags and fused reporters are not part of them.
UniProt Q13464: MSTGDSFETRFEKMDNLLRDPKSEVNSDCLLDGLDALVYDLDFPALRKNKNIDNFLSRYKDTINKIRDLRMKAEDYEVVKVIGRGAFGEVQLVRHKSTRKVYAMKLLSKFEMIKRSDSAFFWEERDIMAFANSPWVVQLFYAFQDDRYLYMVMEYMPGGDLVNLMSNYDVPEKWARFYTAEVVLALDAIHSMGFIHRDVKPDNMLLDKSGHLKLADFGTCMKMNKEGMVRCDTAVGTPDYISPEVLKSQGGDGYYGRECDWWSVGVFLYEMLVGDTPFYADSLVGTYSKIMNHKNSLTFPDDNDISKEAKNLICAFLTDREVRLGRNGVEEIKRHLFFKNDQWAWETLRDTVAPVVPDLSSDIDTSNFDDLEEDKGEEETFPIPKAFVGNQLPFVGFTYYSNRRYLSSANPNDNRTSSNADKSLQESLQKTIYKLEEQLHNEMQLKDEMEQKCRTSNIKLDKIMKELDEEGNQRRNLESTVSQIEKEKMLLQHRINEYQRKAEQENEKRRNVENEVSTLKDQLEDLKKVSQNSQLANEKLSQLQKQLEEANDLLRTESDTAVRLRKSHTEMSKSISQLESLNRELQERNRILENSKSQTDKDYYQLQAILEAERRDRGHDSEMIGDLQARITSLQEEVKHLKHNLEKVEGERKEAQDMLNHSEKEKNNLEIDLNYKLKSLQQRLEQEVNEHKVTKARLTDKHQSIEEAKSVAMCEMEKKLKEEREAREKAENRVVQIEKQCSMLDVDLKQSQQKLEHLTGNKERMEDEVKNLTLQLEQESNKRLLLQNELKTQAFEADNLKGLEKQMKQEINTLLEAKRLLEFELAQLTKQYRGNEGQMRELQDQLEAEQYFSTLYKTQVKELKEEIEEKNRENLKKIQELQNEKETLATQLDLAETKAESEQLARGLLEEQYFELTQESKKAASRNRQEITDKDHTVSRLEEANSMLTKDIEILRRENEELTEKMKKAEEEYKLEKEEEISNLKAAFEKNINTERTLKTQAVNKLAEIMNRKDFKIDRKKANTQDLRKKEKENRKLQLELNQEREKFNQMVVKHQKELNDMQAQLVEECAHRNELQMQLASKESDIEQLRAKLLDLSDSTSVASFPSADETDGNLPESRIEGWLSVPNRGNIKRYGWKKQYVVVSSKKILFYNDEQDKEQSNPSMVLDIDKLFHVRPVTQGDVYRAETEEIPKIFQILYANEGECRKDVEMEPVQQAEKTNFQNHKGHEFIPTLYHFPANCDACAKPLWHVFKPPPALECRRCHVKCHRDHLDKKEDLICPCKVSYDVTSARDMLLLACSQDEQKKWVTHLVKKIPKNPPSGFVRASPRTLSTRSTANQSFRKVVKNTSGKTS
UniProt P46937: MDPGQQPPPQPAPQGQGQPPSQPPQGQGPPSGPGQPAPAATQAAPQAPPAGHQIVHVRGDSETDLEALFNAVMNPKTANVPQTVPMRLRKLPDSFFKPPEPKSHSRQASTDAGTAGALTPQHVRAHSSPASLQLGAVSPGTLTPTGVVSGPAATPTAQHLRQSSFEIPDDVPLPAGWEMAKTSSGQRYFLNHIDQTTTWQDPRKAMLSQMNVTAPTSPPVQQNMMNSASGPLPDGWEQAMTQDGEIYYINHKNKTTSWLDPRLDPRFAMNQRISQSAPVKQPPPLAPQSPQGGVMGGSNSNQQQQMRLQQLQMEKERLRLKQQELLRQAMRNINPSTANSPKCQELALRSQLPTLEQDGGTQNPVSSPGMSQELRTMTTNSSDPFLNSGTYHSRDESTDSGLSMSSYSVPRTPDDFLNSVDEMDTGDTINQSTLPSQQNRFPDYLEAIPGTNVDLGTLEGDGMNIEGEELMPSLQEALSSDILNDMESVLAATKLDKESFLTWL

Biological target: Rho-associated protein kinase 1 (UniProt Q13464)
Assay: co-IP; cell lysates (RIPA buffer) incubated with IgG or specific antibody (2 ug, ROCK1 antibody) 14 h at 4 °C, protein G agarose beads 4 h, three RIPA washes; Coomassie staining and western blot

binding: binds
Substance: yes-associated protein (from UniProt P46937 1-504)
